PubChem BioAssay AID1479148 (National Center for Advancing Translational Sciences (NCATS), 2020)
The inconclusive results got no clear call from the source; some entries with a clear call stand among them for comparison. Potencies of inconclusive entries are doubtful fits and often do not repeat. Active and inactive are the calls of the source. Calls follow the shape of the full dose curve.

Assay: Confirmatory qHTS for inhibitors of SARS-S pseudo-typed particle cell entry
Settings: SARS-S pseudotyped particle cell entry, reporter luminescence; series mostly up to 57.1 µM; activity change, negative = inhibition: at the top concentration
For `CN1CC[C@H](CN2c3ccccc3Sc3ccccc32)C1`, the Potency was inconclusive: 13.6 µM [inhibitor, partial curve, poor fit]. For `CCCCCCCCCCCCOCCOCCOCCOCCOCCOCCOCCOCCOCCO`, the Potency was inconclusive: 0.136 µM [inhibitor, full curve, poor fit]. With `N#CC(c1ccc(Cl)cc1)c1c(Cl)cc(-n2ncc(=O)[nH]c2=O)cc1Cl` (centres undefined) the Potency was active: 19.2 µM. In the case of `COc1c(OCCCN2CCOCC2)ccc2c3n(c(=NC(=O)c4cnc(N)nc4)nc12)CCN3`, the Potency is reported as inconclusive: 0.0221 µM [inhibitor, full curve, poor fit]. For `CC[C@@H]([C@H](C)O)n1ncn(-c2ccc(N3CCN(c4ccc(OC[C@@H]5CO[C@@](Cn6cncn6)(c6ccc(F)cc6F)C5)cc4)CC3)cc2)c1=O`, the Potency was inconclusive: 10.8 µM [inhibitor, partial curve, poor fit]. With `CCCCc1oc2ccccc2c1C(=O)c1cc(I)c(OCCN(CC)CC)c(I)c1` the Potency was inconclusive: 10.8 µM [inhibitor, partial curve, poor fit]. For `Cc1nnc(C(=O)NC(C)(C)c2nc(C(=O)NCc3ccc(F)cc3)c(O)c(=O)n2C)o1`, the Potency was active: 0.0108 µM. In the case of `CN(C)CCOC(c1ccccc1)c1ccc(Br)cc1` (centres undefined), the Potency is reported as inconclusive: 42.9 µM [inhibitor, partial curve, poor fit]. With `O=C(O)c1cc(O)c2c(c1)[C@H]([C@H]1c3cc(C(=O)O)cc(O)c3C(=O)c3c(O[C@@H]4O[C@H](CO)[C@@H](O)[C@H](O)[C@H]4O)cccc31)c1cccc(O[C@@H]3O[C@H](CO)[C@@H](O)[C@H](O)[C@H]3O)c1C2=O` the “activity change, negative = inhibition” value was inactive: -58.3% [at 33 µM]. In the case of `CC(C)(C)NC(=O)[C@H]1CC[C@H]2[C@@H]3CC[C@H]4NC(=O)C=C[C@]4(C)[C@H]3CC[C@]12C`, the “activity change, negative = inhibition” value is reported as inactive: -41.9%. In the case of `COc1cc2nccc(Oc3ccc(NC(=O)C4(C(=O)Nc5ccc(F)cc5)CC4)cc3)c2cc1OC`, the Potency is reported as inconclusive: 10.8 µM [inhibitor, partial curve, poor fit]. With `O=c1[nH]c(=O)n([C@H]2C[C@H](O)[C@@H](CO)O2)cc1C(F)(F)F` the Potency was inconclusive: 0.0482 µM [inhibitor, full curve, poor fit]. With `CCn1cc(C(=O)O)c(=O)c2cc(F)c(N3CCNC(C)C3)c(F)c21` (centres undefined) the “activity change, negative = inhibition” value was inactive: -1.43%. With `CC(=O)OCC1=C(C(=O)O)N2C(=O)[C@@H](NC(=O)Cc3cccs3)[C@H]2SC1` the Potency was inconclusive: 0.171 µM [inhibitor, full curve, poor fit]. For `CC[C@@]1(O)C(=O)OCc2c1cc1n(c2=O)Cc2cc3c([N+](=O)[O-])cccc3nc2-1`, the Potency was active: 0.124 µM. For `C[C@@H](c1nc(-c2ccc(C#N)cc2)cs1)[C@](O)(Cn1cncn1)c1cc(F)ccc1F`, the Potency was inconclusive: 24.1 µM [inhibitor, partial curve, poor fit]. With `COc1cc([C@@H]2c3cc4c(cc3C(O[C@@H]3O[C@@H]5CO[C@@H](c6cccs6)OC5[C@H](O)[C@H]3O)C3COC(=O)[C@@H]32)OCO4)cc(OC)c1O` (some centres undefined) the Potency was active: 1.08 µM. With `CCOc1ccc(Cc2nccc3cc(OCC)c(OCC)cc23)cc1OCC` the Potency was inconclusive: 0.0764 µM [inhibitor, full curve, poor fit]. For `OCCN1CCN(CC/C=C2/c3ccccc3Sc3ccc(C(F)(F)F)cc32)CC1`, the Potency was inconclusive: 24.1 µM [inhibitor, partial curve, poor fit]. With `Cc1cc(-n2c(=O)[nH]c(=O)n(C)c2=O)ccc1Oc1ccc(S(=O)(=O)C(F)(F)F)cc1` the Potency was inconclusive: 42.9 µM [inhibitor, partial curve, poor fit]. For `C[C@H]1[C@H](OC(=O)CCC(=O)O)O[C@@H]2O[C@@]3(C)CC[C@H]4[C@H](C)CC[C@@H]1[C@@]24OO3`, the Potency was inconclusive: 12.1 µM [inhibitor, partial curve]. For `CC[C@@]1(O)C(=O)OCc2c1cc1n(c2=O)Cc2c-1nc1ccccc1c2/C=N/OC(C)(C)C`, the Potency was active: 0.0857 µM. In the case of `COc1ccc(Cc2nccc3cc(OC)c(OC)cc23)cc1OC`, the Potency is reported as inconclusive: 13.6 µM [inhibitor, partial curve, poor fit]. In the case of `CCCCCCNC(=O)n1cc(F)c(=O)[nH]c1=O`, the Potency is reported as inconclusive: 0.341 µM [inhibitor, full curve, poor fit].
